Some results were stated once for a whole list of compounds, not compound by compound.
Test system: genital Herpes Simplex viral infection
Test: Case reports: recurrent genital herpes treated with bupropion
Assay type: in vivo, humans
Conditions: Example 4, case one, extensive genital herpes
Excerpt: There were 5-6 recurrences per year. […] The fourth case was patient one, a student with extensive genital herpes. They have had 4 attacks thus far, which have been treated initially with acyclovir and then later with famciclovix. The normal duration of these attacks on these agents was 5-7 days. They were unable to attend classes and took a further 2 weeks before they felt normal. A big feature of their illness is the severe fatigue that precedes and follows their attacks. […] They had not developed any post-[…] fatigue either. They later used a further 2 day course when they felt tingling.

SMILES	normal duration of attacks on these agents
CC(=O)OCC(CCn1cnc2cnc(N)nc21)COC(C)=O [Famciclovir]	5 to 7 days
Nc1nc2c(ncn2COCCO)c(=O)[nH]1 [acyclovir]	5 to 7 days
